± gives the standard deviation. This is one part of the list. Many of these values have a large error.
tested on: EfPiwi piRISC loaded with L1MC piRNA (26 nt); experiment: pre-steady-state target cleavage rate (min^-1); guide: L1MC piRNA 5'p-UAACUAAAUACUAUGCAAGCUGUAGG; MIWI and MILI are mouse PIWI proteins and EfPiwi is from a freshwater sponge; tags in brackets are library labels; higher = faster piRNA-guided slicing of the target; conditions: auxiliary factor: 500 nM Ephydatia muelleri Gtsf1
Experimental: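 Cleave-'n-Seq: a library of target RNAs (target site in constant flanks) at […] was incubated with 1 nM active freshwater sponge Ephydatia fluviatilis Piwi piRISC (synthetic 5'-monophosphorylated piRNA guide) with or without 500 nM EmGtsf1 at 33 °C for 1 min to 16 h. Uncleaved targets were sequenced and the pooled three trials fitted to a burst-and-steady-state model to give the pre-steady-state cleavage rate (min^-1). Sequence is the target site only. Fits with R² ≤ 0 are excluded.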

Row | Sequence | pre-steady-state target cleavage rate
1 | UCCUGGUACAGCUUCGAUAGUAUUUAGUAA | 0.000882 ± 0.0065
2 | UCCUGGAUGUCGAACCAUAGUAUUUCGUUA | < 0.0001
3 | UCCUCCUACAGCUACCAUAGUAUUUAGUAA | 0.00215 ± 0.0023
4 | UCCUGGAACAGCUUGCUUACUAUUUAGUUA | 0.00758 ± 0.0029
5 | UCCUGGAUCAGCUAGGAUAGUAUUUAGUUA | 0.00257 ± 0.002
6 | UCCUGGAUGUCGAUGCAUAGUAUUUAGGUUA | 0.000852 ± 0.0083
7 | UCCUCCAUGAGCUUGCAUAGUAUUUACAAA | 0.00312 ± 0.0024
8 | UCCUGGAUGUGCUUGCAUUGUAUUUACUUA | 0.000176 ± 0.042
9 | UCCUGGUACAGCUUGCAUAGUAAUUAGUUA | 0.00654 ± 0.0025
10 | UCCUGCUACAGCUAGCAUUGUAUUUAGUUA | 0.00762 ± 0.0028
11 | UCCUGCUACAGCUUGCAUUGUAUAUAGUUA | 0.00254 ± 0.0032
12 | UCCUGGAACACGUUGCAUAGUAUUUAGUAA | 0.00365 ± 0.0034
13 | UCCUGCUACAGCUUGCAUUGUAAUUAGUUA | 0.00519 ± 0.0025
14 | UCCUGCUACAGCUUGCAUAGUAUAAACAAA | 0.00142 ± 0.0034
15 | UCCUGGAACAGGUUGCAUAGUAUUUUGUUA | 0.00366 ± 0.0015
16 | UCCUGGAUCAGCUUGCUAUCAUAAAUCAAA [g15:g22:cont:t1A] | 0.000154 ± 0.025
17 | UCCUGCUACAGCUUGCAAUGUAUUUACAAA | 0.000187 ± 0.021
18 | UCCUGCUUCAGCUUGCAUAGUAAUUAGUUA | 0.00863 ± 0.003
19 | UCCUGGAUGUCGAUGCAUAGUAUAAAGUUA | 0.000224 ± 0.013
20 | UCCUGCUACAGCUUCCAUACUAUUUAGUUA | 0.00206 ± 0.0022
21 | UCCUGGUACAGCUUGCAUACAUUUUUCAAA | 0.00028 ± 0.015
22 | UCCUGGAUGUCGAUGCAUAGUAUUUGGUUA | 0.00119 ± 0.0044
23 | UCCUGCUUCAGCUUGGAUAGUAUUUAGUUA | 0.0331 ± 0.007
24 | UCCUGGAUGUGCUUGCAAACUAUUUAGUUA | 0.00104 ± 0.0054
25 | UCCUGCUAGUCCUUGCAUAGUAUUUUCAAA | 0.00149 ± 0.0043

same assay, conditions: auxiliary factor: none (no Gtsf1)

Row | Sequence | pre-steady-state target cleavage rate
26 | UCCUCCUACAGCUACCAUAGUAUUUAGUAA | 0.000208 ± 0.024
27 | UCCUGGAUGUCGAUGCAUAGUAUUUAGGUUA | 0.00017 ± 0.044
28 | UCCUCCAUGAGCUUGCAUAGUAUUUACAAA | 0.000251 ± 0.015
29 | UCCUGGAUGUGCUUGCAUUGUAUUUACUUA | 0.000496 ± 0.016
30 | UCCUGCUACAGCUAGCAUUGUAUUUAGUUA | 0.000993 ± 0.0062
31 | UCCUGCUACAGCUUGCAUUGUAUAUAGUUA | 0.000414 ± 0.014
32 | UCCUGGAACACGUUGCAUAGUAUUUAGUAA | 0.000754 ± 0.013
33 | UCCUGCUACAGCUUGCAUUGUAAUUAGUUA | 0.000814 ± 0.0068
34 | UCCUGCUACAGCUUGCAUAGUAUAAACAAA | 0.000123 ± 0.022
35 | UCCUGGAACAGGUUGCAUAGUAUUUUGUUA | 0.000549 ± 0.018
36 | UCCUGCUACAGCUUGCAAUGUAUUUACAAA | 0.000164 ± 0.015
37 | UCCUGGAUGUCGAUGCAUAGUAUUUGGUUA | 0.000189 ± 0.041
38 | UCCUGGAUGUGCUUGCAAACUAUUUAGUUA | 0.000516 ± 0.015
39 | UCCUGCUAGUCCUUGCAUAGUAUUUUCAAA | 0.000344 ± 0.018

Reference: the supplement of paper PMC10338343
